Experimental data as given in paper PMC3320614.
No constants are given. Whether binding was seen depends on the method and setting. For some assays here: In cells and extracts the contact can be indirect. Some entries that bind do so weakly or less than the wild type.

By UniProt entry, the sequences of proteins in these tests, tags left out. Where a name states a change or a piece, a line headed by the entry shows the natural chain unless it says otherwise. Residues count along the entry.
UniProt O92506: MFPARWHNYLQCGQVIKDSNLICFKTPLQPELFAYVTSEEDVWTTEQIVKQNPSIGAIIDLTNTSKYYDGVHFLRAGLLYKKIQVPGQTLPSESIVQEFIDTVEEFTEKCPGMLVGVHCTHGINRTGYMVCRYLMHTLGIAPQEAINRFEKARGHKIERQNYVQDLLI
N-terminal 90 amino acid residues of BmNPV PTP, yeast two-hybrid fusion (Bombyx mori nucleopolyhedrovirus (BmNPV)): residues 1-90 of O92506
UniProt O92377: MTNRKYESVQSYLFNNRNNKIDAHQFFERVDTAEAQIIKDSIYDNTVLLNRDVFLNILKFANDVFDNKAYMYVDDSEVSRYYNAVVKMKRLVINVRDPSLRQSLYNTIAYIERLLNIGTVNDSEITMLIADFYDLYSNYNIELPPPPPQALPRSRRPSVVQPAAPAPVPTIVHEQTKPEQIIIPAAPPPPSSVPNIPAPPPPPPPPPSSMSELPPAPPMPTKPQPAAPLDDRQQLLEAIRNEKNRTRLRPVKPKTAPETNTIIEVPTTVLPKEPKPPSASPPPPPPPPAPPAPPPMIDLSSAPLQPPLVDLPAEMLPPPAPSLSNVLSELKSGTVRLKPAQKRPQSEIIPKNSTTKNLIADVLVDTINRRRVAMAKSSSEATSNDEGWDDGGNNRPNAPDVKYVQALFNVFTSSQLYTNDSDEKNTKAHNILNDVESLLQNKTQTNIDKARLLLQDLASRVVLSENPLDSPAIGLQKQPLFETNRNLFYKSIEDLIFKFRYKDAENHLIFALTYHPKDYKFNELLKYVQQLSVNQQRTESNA

Columns and labels:
[1] = target: FLAG-tagged PTP expressed by BmPTPD-wt under the authentic ptp promoter (Bombyx mori nucleopolyhedrovirus (BmNPV)) (UniProt O92506); assay: co-IP; extracts of BmN cells infected with BmPTPD-wt (MOI 5, 72 h p.i.) immunoprecipitated with anti-FLAG antibody; western blot with anti-ORF1629 antibody
[2] = target: N-terminal 90 amino acid residues of BmNPV PTP, yeast two-hybrid fusion (Bombyx mori nucleopolyhedrovirus (BmNPV)) (UniProt O92506); assay: two-hybrid; further analysis in yeast with regions of ORF1629 and of PTP; X-gal screening assay

Row | Substance | binding [1] | binding [2]
1 | ORF1629 in BmPTPD-wt-infected BmN cells (from UniProt O92377 1-542) | binds | 
2 | ORF1629 of BmNPV, yeast two-hybrid fusion used to map the ORF1629-interacting domains of PTP (from UniProt O92377 1-542) |  | no binding
